From ChEMBL document CHEMBL1146196, “Bactericidal activity and resistance development profiling of dalbavancin” (2007)
In brackets after ≈: the same amount, converted by molar mass.

Assays:
Staphylococcus aureus = experiment: Antimicrobial activity against vancomycin-intermediate Staphylococcus aureus FB988644; type: functional
Enterococcus faecalis [1] = experiment: Antimicrobial activity against vancomycin-susceptible Enterococcus faecalis FB766323; type: functional
Enterococcus faecalis [2] = experiment: Antimicrobial activity against vancomycin-susceptible Enterococcus faecalis FB766782; type: functional
Enterococcus faecium [3] = experiment: Antimicrobial activity against vancomycin-susceptible Enterococcus faecium FB769334
Enterococcus faecium [4] = experiment: Antimicrobial activity against vancomycin-susceptible Enterococcus faecium FB767191

Structure (SMILES): CN[C@H](CC(C)C)C(=O)N[C@H]1C(=O)N[C@@H](CC(N)=O)C(=O)N[C@H]2C(=O)N[C@H]3C(=O)N[C@H](C(=O)N[C@H](C(=O)O)c4cc(O)cc(O)c4-c4cc3ccc4O)[C@H](O)c3ccc(c(Cl)c3)Oc3cc2cc(c3O[C@@H]2O[C@H](CO)[C@@H](O)[C@H](O)[C@H]2O[C@H]2C[C@](C)(N)[C@H](O)[C@H](C)O2)Oc2ccc(cc2Cl)[C@H]1O [VANCOMYCIN]
- MIC (Staphylococcus aureus): 8 µg/mL (≈ 5.52 µM)
- MIC (Enterococcus faecalis [1]): 1 µg/mL (≈ 0.69 µM)
- MIC (Enterococcus faecalis [2]): 1 µg/mL (≈ 0.69 µM)
- MIC (Enterococcus faecium [3]): 0.5 µg/mL (≈ 0.345 µM)
- MIC (Enterococcus faecium [4]): 2 µg/mL (≈ 1.38 µM)
